# Measured values from PubChem BioAssay AID445 (National Center for Advancing Translational Sciences (NCATS), 2006).
# The other results are listed elsewhere or left out. Shown are side measurements of this screen, not its main read-out; they come without a call. Compounds called inactive in the main read-out are mostly missing here. The note in brackets gives the kind of curve behind each potency; many fits are weak.
# Assay: IkB Signaling
# Conditions: ABC-DLBCL IkBa-CBG/CBR dual luciferase ratio (green luciferase fused to IkBa over red control in OCI-Ly3 lymphoma cells), 4 h
# Outline: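 Luminescence ratio of IκBα-fused green versus native red beetle luciferase in OCI-Ly3 cells, 4 h post-doxycycline with compound; red signal alone, scaled from basal (0%) to zero light (-100%), flagged nonspecific or cytotoxic effects.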
# [1] = measured here: control luc red channel unless noted
# [2] = measured here: IkB-luc green channel
# [3] = measured here: control luc red channel
smiles,measurement,setting,value
Cn1c(=O)c2sccc2n2c(CCC(=O)N3CCN(c4cccc(Cl)c4)CC3)nnc12,AC50,[1],"15.8 µM [falling, single point]"
CCCCC(=O)Nc1nnc(S(=O)(=O)N(CC)c2cc(C)cc(C)c2)s1,AC50,[1],"12.6 µM [falling, partial curve]"
CCCCOC(=O)c1ccc(Nc2nc3ccccc3c3nnc(C)n23)cc1,AC50,[1],"2.51 µM [falling, partial curve]"
CCOc1ccc(/C=C(\C#N)C(=O)Nc2sc3c(c2C(=O)OC)C(C(=O)OC)CC3)cc1OC (centres undefined),AC50,[2],"31.6 µM [rising, partial curve]"
same,AC50,[3],"31.6 µM [rising, partial curve]"
Cc1ccsc1-c1nc(CSCC(=O)N2CCN(c3ccccc3)CC2)c(C)o1,AC50,[1],"12.6 µM [falling, partial curve]"
COc1ccc(-c2ccc(-c3nnc(-c4ccncc4)o3)cc2)cc1,AC50,[1],"20 µM [falling, single point]"
O=C(Cn1c(=O)n(Cc2ccc(C(=O)NCc3ccccc3Cl)cc2)c(=O)c2ccccc21)Nc1ccc(F)c(Cl)c1,AC50,[1],"1 µM [falling, full curve]"
CCc1cccc(C)c1NC(=O)CN1C(=O)C2(SCC(=O)N2c2cc(C)cc(C)c2)c2ccccc21 (centres undefined),AC50,[1],"15.8 µM [falling, partial curve]"
Cc1ccc(-c2nc(CS(=O)(=O)CC(=O)NCc3ccccc3Cl)c(C)o2)cc1,AC50,[1],"31.6 µM [falling, partial curve]"
Cc1ccccc1CNC(=O)c1sc2ncnc(N(C)C3CCCCC3)c2c1C,AC50,[1],"39.8 µM [falling, single point]"
COc1ccccc1NC(=O)N(Cc1ccco1)Cc1cc2ccc(C)c(C)c2[nH]c1=O,AC50,[1],"15.8 µM [falling, partial curve]"
O=S(=O)(c1ccc2[nH]c3c(c2c1)CCCCC3)N1CCN(c2cccc(Cl)c2)CC1,AC50,[1],"3.98 µM [falling, full curve]"
Cc1oc(-c2cccc(Cl)c2)nc1CN1CCCC(C(=O)NCc2ccc(Cl)cc2)C1 (centres undefined),AC50,[1],"20 µM [falling, partial curve]"
Cc1cc(C)n(-c2ccc(C(=O)Nc3sccc3C(N)=O)cc2)n1,AC50,[1],"25.1 µM [falling, partial curve]"
Cc1cc(C)cc(OCC(=O)N(Cc2ccc(Cl)cc2)CC2CCCO2)c1 (centres undefined),AC50,[1],"31.6 µM [falling, partial curve]"
c1ccc(CCNc2nc3ccccc3n3nnnc23)cc1,AC50,[1],"3.98 µM [falling, full curve]"
O=C(NC1CCCC1)c1ccc2c(=O)n(Cc3ccccc3)c(SCc3ccccc3)nc2c1,AC50,[1],"0.316 µM [falling, full curve]"
Cc1ccc(Nc2nc(Nc3ccc(C)c(C)c3)nc(N3CCOCC3)n2)cc1C,AC50,[1],"12.6 µM [falling, partial curve]"
CCc1cccc(C)c1NC(=O)C1CCN(S(=O)(=O)Cc2ccccc2)CC1,AC50,[1],"0.0158 µM [rising, full curve, poor fit]"
COCCn1nnnc1C(c1cccs1)N1CCN(c2cc(C)ccc2C)CC1 (centres undefined),AC50,[1],"12.6 µM [falling, partial curve]"
COc1ccc(N2CCN(CCCNC(=O)c3cc(Nc4ccccc4OC)nc4ccccc34)CC2)cc1,AC50,[1],"20 µM [falling, partial curve]"
N#CC1=C(N)C(C#N)(C#N)C(c2cccnc2)C2COCC=C12 (centres undefined),AC50,[1],"39.8 µM [rising, single point] [measured here: IkB-luc green channel]"
COc1ccc(S(=O)(=O)N2CCCC(C(=O)Nc3cccnc3)C2)cc1Cl (centres undefined),AC50,[1],"25.1 µM [falling, single point]"
CCc1ccc(NC(=O)C2=CC(c3ccc4c(c3)OCO4)=NS(=O)(=O)N2C)cc1,AC50,[1],"31.6 µM [falling, single point]"
COc1ccccc1CNC(=O)CSc1ncc2c(n1)-c1cc(Cl)ccc1N(Cc1ccccc1)S2(=O)=O,AC50,[1],"1.26 µM [falling, full curve]"
Cc1c(C(=O)N(Cc2ccc(Cl)cc2)CC2CCCO2)oc2ccc(F)cc12 (centres undefined),AC50,[1],"39.8 µM [falling, single point]"
CCOc1ccc(-c2nc(SCC(=O)NCCCOC)c(-c3ccccc3)[nH]2)cc1,AC50,[1],"25.1 µM [falling, single point]"
CSc1ccc(CC2C(=O)Nc3ccccc32)cc1 (centres undefined),AC50,[1],"25.1 µM [falling, single point]"
O=C(CS(=O)(=O)c1cccc2nsnc12)Nc1cc(F)ccc1F,AC50,[1],"0.0158 µM [falling, full curve, poor fit]"
O=C(Cc1ccccc1F)N1CCC(c2nc3c(nnn3Cc3ccc(F)cc3)c(=O)[nH]2)CC1,AC50,[1],"39.8 µM [falling, single point]"
O=C(NCc1cccnc1)NC1(C(F)(F)F)Oc2ccc(Cl)cc2O1 (centres undefined),AC50,[2],"39.8 µM [rising, single point]"
same,AC50,[3],"3.16 µM [falling, full curve]"
CCCOc1ccc(NC(=O)CC2C(=O)N(c3ccc(C)cc3)C(=O)N2Cc2cccc(OC)c2)cc1 (centres undefined),AC50,[1],"2.51 µM [falling, full curve]"
CCOC(=O)C1CCN(c2c(C(=O)c3ccc(C)cc3)cnc3ccc(F)cc23)CC1,AC50,[1],"39.8 µM [falling, single point]"
O=C(C1CC1)N1CCc2cc(Br)cc(S(=O)(=O)N3CCCCCC3)c21,AC50,[1],"12.6 µM [falling, partial curve]"
CC1CCc2nc(NC(=O)C3CCCO3)sc2C1 (centres undefined),AC50,[1],"12.6 µM [falling, partial curve]"
O=C(NCCCN1CCOCC1)c1cc(-c2ccc(Cl)cc2)on1,AC50,[1],"15.8 µM [falling, partial curve]"
CC1CCC2(CC1)N=C(c1ccccc1)C(=O)N2CC(=O)Nc1ccc(F)c(Cl)c1 (centres undefined),AC50,[1],"12.6 µM [falling, partial curve]"
Cc1nc2ncnn2c(C)c1CCC(=O)N1CCN(c2cccc(Cl)c2)CC1,AC50,[1],"25.1 µM [falling, partial curve, poor fit]"
CC(=O)CC1OC(=O)C(Br)=C1NCc1ccccc1 (centres undefined),AC50,[2],"2.51 µM [rising, partial curve]"
same,AC50,[3],"7.94 µM [falling, partial curve]"
CCc1ccccc1NS(=O)(=O)c1ccc(-c2coc(C)n2)cc1,AC50,[1],"1 µM [rising, full curve]"
Cc1oc2ncnc(N3CCCCC3)c2c1C(=O)Nc1cccc(Cl)c1C,AC50,[1],"39.8 µM [falling, single point]"
Cc1nc2cc(-c3ccccc3)nn2c(C)c1CCC(=O)NCCc1ccccc1,AC50,[1],"5.01 µM [falling, partial curve]"
COc1ccc(CC(=O)Nc2ccc(-c3nc4ccccc4s3)cc2Cl)cc1OC,AC50,[1],"2 µM [rising, partial curve]"
COc1ccc(Nc2cc(C(=O)NCCCN(C)c3ccccc3)c3ccccc3n2)c(OC)c1,AC50,[1],"10 µM [falling, partial curve]"
CCOC(=O)c1ccc(Nc2nc(N)c3cc(OC)c(OC)cc3n2)cc1,AC50,[1],"15.8 µM [falling, partial curve]"
Cc1c(Cl)cccc1-n1c(SCC(=O)NCc2ccccc2)nc2n[nH]c(C)c2c1=N,AC50,[1],"39.8 µM [falling, single point]"
CCCOc1ccc(CNC(=O)C(C)n2nc(C)n3c(cc4occc43)c2=O)cc1 (centres undefined),AC50,[1],"39.8 µM [falling, single point]"
O=C(CSc1nnnn1C1CC2CCC1C2)Nc1ccnc2ccccc12 (centres undefined),AC50,[1],"7.94 µM [falling, partial curve]"
CC1CCN(C(=O)c2ccccc2NC(=O)c2nsc3ccccc23)CC1,AC50,[1],"39.8 µM [falling, partial curve]"
O=C(CC(Nc1ccc(F)cc1)C(=O)O)c1ccccc1 (centres undefined),AC50,[1],"12.6 µM [falling, partial curve]"
COc1ccccc1N1CCN(C(=O)c2nc(-c3ccc(C)cc3)n3c2CCCCC3)CC1,AC50,[1],"0.0251 µM [falling, full curve]"
CCC(C)c1ccc2oc(-c3ccc(NC(=O)Cn4cnc5c(=O)n(C)c(=O)n(C)c54)cc3)nc2c1 (centres undefined),AC50,[1],"0.631 µM [falling, full curve]"
O=C(NC1CC1)c1ccc2c(c1)ncn2C1CCCC1,AC50,[1],"10 µM [falling, partial curve]"
Cc1ccc(NC(=O)c2c(C)oc3ccc(O)c(CN4CCCCC4)c23)cc1,AC50,[1],"39.8 µM [falling, single point]"
Cn1c(C(=O)N2CCCC(C(=O)NCCCSC3CCCCC3)C2)cc2sccc21 (centres undefined),AC50,[1],"15.8 µM [falling, partial curve]"
O=C(CSc1nnc(-c2cccs2)o1)N1CCCCC1,AC50,[1],"12.6 µM [falling, partial curve]"
Cc1cc(C)c(/C=C/c2onc(C)c2S(=O)(=O)N2CCC(C(=O)NCC(C)c3ccccc3)CC2)c(C)c1 (centres undefined),AC50,[1],"15.8 µM [falling, partial curve]"
Cc1ccccc1NS(=O)(=O)c1cccc(-c2nnc(-c3ccccc3)o2)c1,AC50,[1],"39.8 µM [rising, single point] [measured here: IkB-luc green channel]"
CCN(CC)CCNC(=O)c1ccc2c(c1)NC(=O)C(CS(=O)(=O)Cc1ccc(F)cc1Cl)N2 (centres undefined),AC50,[1],"1.26 µM [rising, partial curve]"
Cc1nn(C)c2c1c(-c1ccccc1)cc(=O)n2C(C)C(=O)NCCc1ccc(Cl)cc1 (centres undefined),AC50,[1],"25.1 µM [falling, single point]"
COc1ccc(S(=O)(=O)NCC(c2ccco2)N2CCN(c3ccccc3F)CC2)cc1OC (centres undefined),AC50,[1],"25.1 µM [falling, single point]"

# In a second layout: results already given
smiles | measurement | setting | value
CCc1ccc(NC(=O)C2=CC(c3ccc4c(c3)OCO4)=NS(=O)(=O)N2C)cc1 | AC50 | [1] | 31.6 µM [falling, single point]
Cc1ccc(NC(=O)c2c(C)oc3ccc(O)c(CN4CCCCC4)c23)cc1 | AC50 | [1] | 39.8 µM [falling, single point]
COc1ccc(S(=O)(=O)NCC(c2ccco2)N2CCN(c3ccccc3F)CC2)cc1OC (centres undefined) | AC50 | [1] | 25.1 µM [falling, single point]
